Laboratory results: the supplement of paper PMC10849652
The other results are listed elsewhere or left out.

Sequences of proteins named here, by UniProt entry; tags and fusion partners are left off. A change or cut given only in a name is not applied to a line headed by its entry.
UniProt Q9BT22: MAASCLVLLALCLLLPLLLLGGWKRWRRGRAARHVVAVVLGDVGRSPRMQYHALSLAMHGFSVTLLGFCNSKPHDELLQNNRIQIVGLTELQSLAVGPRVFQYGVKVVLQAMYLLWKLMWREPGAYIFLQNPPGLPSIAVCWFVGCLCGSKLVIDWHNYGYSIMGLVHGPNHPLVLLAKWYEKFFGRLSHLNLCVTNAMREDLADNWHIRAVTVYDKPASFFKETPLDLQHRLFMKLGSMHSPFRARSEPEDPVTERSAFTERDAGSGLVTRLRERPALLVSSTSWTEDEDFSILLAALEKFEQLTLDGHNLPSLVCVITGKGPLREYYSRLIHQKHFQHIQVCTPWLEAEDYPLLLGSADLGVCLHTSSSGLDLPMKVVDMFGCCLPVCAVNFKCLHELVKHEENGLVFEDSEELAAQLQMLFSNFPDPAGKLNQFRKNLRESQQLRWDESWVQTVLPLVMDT
UniProt Q9UM13, whole entry, looked up: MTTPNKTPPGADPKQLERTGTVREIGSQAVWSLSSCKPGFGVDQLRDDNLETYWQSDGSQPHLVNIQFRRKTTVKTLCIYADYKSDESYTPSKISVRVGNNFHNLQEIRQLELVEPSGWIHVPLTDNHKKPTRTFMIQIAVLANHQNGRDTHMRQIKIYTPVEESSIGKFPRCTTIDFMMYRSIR
UniProt Q09666: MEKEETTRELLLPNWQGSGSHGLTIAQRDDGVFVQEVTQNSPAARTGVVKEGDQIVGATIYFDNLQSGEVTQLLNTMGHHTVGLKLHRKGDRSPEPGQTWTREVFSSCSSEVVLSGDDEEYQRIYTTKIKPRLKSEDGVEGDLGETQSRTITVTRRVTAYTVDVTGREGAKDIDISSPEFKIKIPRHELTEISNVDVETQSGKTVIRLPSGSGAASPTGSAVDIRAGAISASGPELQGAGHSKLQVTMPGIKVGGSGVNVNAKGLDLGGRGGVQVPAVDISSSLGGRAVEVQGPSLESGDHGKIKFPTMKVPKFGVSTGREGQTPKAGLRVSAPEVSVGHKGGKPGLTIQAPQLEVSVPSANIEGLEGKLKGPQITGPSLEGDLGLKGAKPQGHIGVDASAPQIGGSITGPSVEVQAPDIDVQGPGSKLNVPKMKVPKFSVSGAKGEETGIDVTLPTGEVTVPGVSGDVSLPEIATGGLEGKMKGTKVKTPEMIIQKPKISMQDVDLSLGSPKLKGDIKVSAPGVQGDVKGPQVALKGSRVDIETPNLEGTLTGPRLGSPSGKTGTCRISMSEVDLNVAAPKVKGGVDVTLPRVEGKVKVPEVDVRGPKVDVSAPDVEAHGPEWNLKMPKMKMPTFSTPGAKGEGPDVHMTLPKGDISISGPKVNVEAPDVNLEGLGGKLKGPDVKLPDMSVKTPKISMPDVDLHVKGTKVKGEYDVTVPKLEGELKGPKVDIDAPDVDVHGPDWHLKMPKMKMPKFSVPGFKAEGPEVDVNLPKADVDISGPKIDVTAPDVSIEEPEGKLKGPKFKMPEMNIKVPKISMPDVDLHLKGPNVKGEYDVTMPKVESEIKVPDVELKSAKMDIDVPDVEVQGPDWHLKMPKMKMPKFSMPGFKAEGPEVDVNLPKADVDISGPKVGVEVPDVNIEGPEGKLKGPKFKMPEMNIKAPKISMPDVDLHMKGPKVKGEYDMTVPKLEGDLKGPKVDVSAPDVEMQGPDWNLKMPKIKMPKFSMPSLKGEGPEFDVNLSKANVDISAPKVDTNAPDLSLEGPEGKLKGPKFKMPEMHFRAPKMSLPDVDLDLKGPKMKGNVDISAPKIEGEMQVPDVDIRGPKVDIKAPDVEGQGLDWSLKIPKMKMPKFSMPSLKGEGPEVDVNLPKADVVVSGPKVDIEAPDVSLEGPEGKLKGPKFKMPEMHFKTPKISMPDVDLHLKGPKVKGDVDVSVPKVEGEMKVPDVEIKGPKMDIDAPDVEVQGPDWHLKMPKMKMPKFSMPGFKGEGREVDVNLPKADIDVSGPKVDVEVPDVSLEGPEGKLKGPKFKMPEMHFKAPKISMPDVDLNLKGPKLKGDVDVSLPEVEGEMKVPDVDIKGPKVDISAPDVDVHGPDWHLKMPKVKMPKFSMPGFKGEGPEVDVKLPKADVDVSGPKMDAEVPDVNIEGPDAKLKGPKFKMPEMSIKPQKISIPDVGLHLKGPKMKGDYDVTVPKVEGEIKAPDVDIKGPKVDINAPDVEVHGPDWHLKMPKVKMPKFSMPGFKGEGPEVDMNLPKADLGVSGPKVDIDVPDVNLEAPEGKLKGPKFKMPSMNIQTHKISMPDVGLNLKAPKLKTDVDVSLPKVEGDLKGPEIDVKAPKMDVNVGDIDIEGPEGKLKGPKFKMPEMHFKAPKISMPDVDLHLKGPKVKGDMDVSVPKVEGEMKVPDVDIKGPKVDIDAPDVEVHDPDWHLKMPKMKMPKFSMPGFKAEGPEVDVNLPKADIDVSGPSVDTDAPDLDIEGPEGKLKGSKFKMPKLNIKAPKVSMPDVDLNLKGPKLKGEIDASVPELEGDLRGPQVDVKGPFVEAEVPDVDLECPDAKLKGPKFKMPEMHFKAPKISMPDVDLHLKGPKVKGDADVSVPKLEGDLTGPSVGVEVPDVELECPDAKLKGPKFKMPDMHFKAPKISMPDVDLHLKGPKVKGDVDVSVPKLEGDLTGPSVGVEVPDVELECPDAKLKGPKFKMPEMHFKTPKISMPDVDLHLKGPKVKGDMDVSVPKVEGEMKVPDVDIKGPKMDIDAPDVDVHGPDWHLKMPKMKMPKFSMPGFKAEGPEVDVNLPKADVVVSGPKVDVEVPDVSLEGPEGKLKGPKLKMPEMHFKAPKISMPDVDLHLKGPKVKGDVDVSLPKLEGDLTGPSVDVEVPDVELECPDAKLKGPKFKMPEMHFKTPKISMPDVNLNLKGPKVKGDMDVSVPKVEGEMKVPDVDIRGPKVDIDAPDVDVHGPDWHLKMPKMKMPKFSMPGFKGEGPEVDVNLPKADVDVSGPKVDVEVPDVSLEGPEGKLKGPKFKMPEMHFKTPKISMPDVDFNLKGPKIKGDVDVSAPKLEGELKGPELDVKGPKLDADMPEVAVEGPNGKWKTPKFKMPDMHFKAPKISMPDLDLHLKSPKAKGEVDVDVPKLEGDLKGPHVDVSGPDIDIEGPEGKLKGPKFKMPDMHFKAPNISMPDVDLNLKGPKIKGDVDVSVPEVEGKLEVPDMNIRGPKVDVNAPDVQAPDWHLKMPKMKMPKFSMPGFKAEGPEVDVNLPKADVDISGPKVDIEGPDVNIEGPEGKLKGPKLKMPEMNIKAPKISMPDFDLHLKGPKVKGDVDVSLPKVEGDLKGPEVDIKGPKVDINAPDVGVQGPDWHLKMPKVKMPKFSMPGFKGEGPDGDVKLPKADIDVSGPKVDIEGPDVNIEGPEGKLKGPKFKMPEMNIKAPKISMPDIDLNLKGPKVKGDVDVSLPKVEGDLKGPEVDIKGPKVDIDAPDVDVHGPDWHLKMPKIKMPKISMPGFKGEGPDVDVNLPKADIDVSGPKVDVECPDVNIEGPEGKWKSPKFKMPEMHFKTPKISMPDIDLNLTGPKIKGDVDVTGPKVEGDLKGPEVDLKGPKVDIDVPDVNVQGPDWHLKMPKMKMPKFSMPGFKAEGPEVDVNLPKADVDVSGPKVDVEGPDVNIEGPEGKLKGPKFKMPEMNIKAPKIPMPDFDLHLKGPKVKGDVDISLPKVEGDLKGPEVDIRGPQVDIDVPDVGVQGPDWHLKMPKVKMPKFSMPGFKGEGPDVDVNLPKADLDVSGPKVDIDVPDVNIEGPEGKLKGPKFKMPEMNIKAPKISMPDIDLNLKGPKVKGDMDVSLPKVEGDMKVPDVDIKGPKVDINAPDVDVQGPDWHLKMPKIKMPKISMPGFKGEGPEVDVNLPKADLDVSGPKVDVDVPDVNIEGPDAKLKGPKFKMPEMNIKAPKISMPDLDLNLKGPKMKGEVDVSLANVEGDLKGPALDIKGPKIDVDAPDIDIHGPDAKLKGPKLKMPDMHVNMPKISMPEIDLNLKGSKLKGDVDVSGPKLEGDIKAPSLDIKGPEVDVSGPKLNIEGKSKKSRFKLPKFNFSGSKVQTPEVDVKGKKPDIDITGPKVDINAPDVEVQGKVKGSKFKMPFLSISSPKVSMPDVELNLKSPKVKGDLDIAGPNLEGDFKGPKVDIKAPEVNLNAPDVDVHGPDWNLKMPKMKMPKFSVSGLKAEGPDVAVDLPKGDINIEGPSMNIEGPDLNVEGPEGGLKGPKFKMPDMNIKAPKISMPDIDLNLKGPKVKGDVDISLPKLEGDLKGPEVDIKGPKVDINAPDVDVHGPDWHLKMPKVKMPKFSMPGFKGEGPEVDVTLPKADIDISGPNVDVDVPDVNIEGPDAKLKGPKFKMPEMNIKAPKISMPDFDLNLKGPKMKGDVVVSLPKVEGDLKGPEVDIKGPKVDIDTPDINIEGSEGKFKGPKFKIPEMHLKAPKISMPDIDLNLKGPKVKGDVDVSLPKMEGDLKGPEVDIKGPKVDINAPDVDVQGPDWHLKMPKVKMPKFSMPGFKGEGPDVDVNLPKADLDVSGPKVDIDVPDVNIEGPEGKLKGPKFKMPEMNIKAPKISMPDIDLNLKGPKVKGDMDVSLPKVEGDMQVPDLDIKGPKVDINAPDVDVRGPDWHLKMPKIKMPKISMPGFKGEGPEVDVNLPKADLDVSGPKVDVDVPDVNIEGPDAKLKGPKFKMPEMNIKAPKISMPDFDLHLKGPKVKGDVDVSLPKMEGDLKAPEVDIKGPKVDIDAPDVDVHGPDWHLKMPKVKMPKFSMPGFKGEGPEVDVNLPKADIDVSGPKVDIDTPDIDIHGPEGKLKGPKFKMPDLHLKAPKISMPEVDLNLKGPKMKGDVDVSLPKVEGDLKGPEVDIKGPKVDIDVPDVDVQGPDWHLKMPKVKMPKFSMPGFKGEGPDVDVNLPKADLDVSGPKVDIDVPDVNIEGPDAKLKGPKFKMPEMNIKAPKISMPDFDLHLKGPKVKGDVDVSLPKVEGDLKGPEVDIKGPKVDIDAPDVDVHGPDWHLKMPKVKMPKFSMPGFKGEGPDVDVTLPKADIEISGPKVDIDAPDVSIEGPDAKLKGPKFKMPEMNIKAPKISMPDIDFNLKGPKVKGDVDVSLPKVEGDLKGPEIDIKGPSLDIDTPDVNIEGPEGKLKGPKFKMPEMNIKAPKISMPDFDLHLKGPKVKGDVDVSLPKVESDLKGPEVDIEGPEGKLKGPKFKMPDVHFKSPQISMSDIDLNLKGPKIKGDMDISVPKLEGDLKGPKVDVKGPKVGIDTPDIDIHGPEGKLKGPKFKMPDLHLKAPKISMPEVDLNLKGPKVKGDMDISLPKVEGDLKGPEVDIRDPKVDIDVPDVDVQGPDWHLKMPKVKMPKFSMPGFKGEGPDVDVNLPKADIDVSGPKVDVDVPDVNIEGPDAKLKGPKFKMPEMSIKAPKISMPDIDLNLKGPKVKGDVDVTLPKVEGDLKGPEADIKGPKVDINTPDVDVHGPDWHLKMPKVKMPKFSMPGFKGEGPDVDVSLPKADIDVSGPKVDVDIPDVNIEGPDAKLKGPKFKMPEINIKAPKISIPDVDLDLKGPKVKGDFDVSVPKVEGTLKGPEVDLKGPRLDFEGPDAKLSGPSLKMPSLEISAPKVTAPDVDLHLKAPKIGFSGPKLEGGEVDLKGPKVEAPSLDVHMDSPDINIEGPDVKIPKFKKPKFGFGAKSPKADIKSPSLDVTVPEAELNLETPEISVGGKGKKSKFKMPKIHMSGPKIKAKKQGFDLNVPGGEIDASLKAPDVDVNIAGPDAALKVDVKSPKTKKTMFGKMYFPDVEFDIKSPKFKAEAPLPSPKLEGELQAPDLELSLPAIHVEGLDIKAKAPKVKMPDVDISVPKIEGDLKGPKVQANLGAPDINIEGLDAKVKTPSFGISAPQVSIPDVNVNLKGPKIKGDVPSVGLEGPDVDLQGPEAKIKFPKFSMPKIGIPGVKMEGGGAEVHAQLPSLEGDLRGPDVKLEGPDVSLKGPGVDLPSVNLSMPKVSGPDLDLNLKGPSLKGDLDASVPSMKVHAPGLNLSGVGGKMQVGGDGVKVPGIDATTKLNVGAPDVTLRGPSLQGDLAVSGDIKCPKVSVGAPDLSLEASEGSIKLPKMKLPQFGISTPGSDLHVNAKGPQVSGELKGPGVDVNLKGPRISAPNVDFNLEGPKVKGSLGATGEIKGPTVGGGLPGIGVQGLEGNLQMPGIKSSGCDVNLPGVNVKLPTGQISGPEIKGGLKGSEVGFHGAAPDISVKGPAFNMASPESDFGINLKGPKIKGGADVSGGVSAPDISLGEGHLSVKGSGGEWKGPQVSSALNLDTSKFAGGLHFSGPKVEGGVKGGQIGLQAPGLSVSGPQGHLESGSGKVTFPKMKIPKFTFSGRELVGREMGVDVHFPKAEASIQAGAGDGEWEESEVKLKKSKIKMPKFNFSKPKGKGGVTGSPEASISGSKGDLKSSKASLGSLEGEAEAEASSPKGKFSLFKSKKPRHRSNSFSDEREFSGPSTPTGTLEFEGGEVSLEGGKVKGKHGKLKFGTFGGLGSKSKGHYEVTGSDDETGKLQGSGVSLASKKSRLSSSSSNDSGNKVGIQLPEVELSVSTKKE

Experiments:
Test in all cases: log2 fold change, soluble protein after heating vs DMSO (PISA); higher = thermal stabilisation; K562 cells, 10 uM, 30 min; active = over 0.2 and 3.5 SD of the protein, either way, in both replicates (recomputed)
saracatinib = compound: CN1CCN(CCOc2cc(OC3CCOCC3)c3c(Nc4c(Cl)ccc5c4OCO5)ncnc3c2)CC1 [saracatinib]
Procedure, shortened: (§1)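 Soluble protein was defined as the supernatant after 21,000xg for 90 min. It came from K562 cells at 2×10^6 cells/mL given 10 μM compound for 30 min, heated in aliquots for 3 min across 48°C-58°C, pooled, and extracted in PBS with 0.5% NP-40 at 4°C, and was quantified by TMTpro 16plex LC-MS/MS with equalised channel sums. Thermal stability against control samples, from duplicates, is reported as log2 fold change.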

sotrastaurin = compound: CN1CCN(c2nc(C3=C(c4c[nH]c5ccccc45)C(=O)NC3=O)c3ccccc3n2)CC1 [sotrastaurin]
Procedure, shortened: as §1

alvocidib = compound: CN1CC[C@H](c2c(O)cc(O)c3c(=O)cc(-c4ccccc4Cl)oc23)[C@H](O)C1 [alvocidib]
Procedure, shortened: as §1

Tubastatin A = compound: CN1CCc2c(c3ccccc3n2Cc2ccc(C(=O)NO)cc2)C1 [Tubastatin A]
Procedure, shortened: as §1

[1] = compound: CNC(=O)C1=CC=CC=C1NC2=NC(=NC=C2Cl)NC3=C(C=C(C=C3)N4CCOCC4)OC
Procedure, shortened: as §1

defactinib = compound: CNC(=O)c1ccc(Nc2ncc(C(F)(F)F)c(NCc3nccnc3N(C)S(C)(=O)=O)n2)cc1 [defactinib]
Procedure, shortened: as §1

rucaparib = compound: CNCc1ccc(-c2[nH]c3cc(F)cc4c3c2CCNC4=O)cc1 [rucaparib]
Procedure, shortened: as §1

[2] = compound: CNc1nc(-c2ccc3c(N)n[nH]c3c2)cc(N2C[C@@H](C(=O)NC3CCCCC3)CC[C@H]2C)n1
Procedure, shortened: as §1

encorafenib = compound: COC(=O)N[C@@H](C)CNc1nccc(-c2cn(C(C)C)nc2-c2cc(Cl)cc(NS(C)(=O)=O)c2F)n1 [encorafenib]
Procedure, shortened: as §1

[3] = compound: COC(=O)[C@H](CCSC)NC(=O)C1=C(C=C(C=C1)NC[C@H](CS)N)C2=CC=CC=C2
Procedure, shortened: as §1

[4] = compound: COC1=CC=C(C=C1)CN2C=CC3=C2C=C(C=C3)C(=O)NO
Procedure, shortened: as §1

filanesib = compound: CON(C)C(=O)N1N=C(c2cc(F)ccc2F)S[C@@]1(CCCN)c1ccccc1 [filanesib]
Procedure, shortened: as §1

zotarolimus = compound: CO[C@H]1C[C@@H]2CC[C@@H](C)[C@@](O)(O2)C(=O)C(=O)N2CCCC[C@H]2C(=O)O[C@H]([C@H](C)C[C@@H]2CC[C@H](n3cnnn3)[C@H](OC)C2)CC(=O)[C@H](C)/C=C(\C)[C@@H](O)[C@@H](OC)C(=O)[C@H](C)C[C@H](C)/C=C/C=C/C=C/1C [zotarolimus]
Procedure, shortened: as §1

idasanutlin = compound: COc1cc(C(=O)O)ccc1NC(=O)[C@@H]1N[C@@H](CC(C)(C)C)[C@](C#N)(c2ccc(Cl)cc2F)[C@H]1c1cccc(Cl)c1F [idasanutlin]
Procedure, shortened: as §1

alisertib = compound: COc1cc(Nc2ncc3c(n2)-c2ccc(Cl)cc2C(c2c(F)cccc2OC)=NC3)ccc1C(=O)O [alisertib]
Procedure, shortened: as §1

[5] = compound: COc1cc2nc(-c3cc(F)ccc3O)nc(N[C@@H]3CNC[C@H]3C(C)(C)O)c2cc1OC
Procedure, shortened: as §1

gefitinib = compound: COc1cc2ncnc(Nc3ccc(F)c(Cl)c3)c2cc1OCCCN1CCOCC1 [gefitinib]
Procedure, shortened: as §1

[6] = compound: COc1cccc2cc(-c3nc([C@H]4CC[C@H](C(=O)O)CC4)n4ncnc(N)c34)[nH]c12
Procedure, shortened: as §1

lapatinib = compound: CS(=O)(=O)CCNCc1ccc(-c2ccc3ncnc(Nc4ccc(OCc5cccc(F)c5)c(Cl)c4)c3c2)o1 [lapatinib]
Procedure, shortened: as §1

pictilisib = compound: CS(=O)(=O)N1CCN(Cc2cc3nc(-c4cccc5[nH]ncc45)nc(N4CCOCC4)c3s2)CC1 [pictilisib]
Procedure, shortened: as §1

Measured: log2 fold change

AKAP12 (UniProt Q02952)
inactive: saracatinib 0.039 | sotrastaurin -0.121 | alvocidib -0.048 | Tubastatin A -0.001 | [1] 0.01 | defactinib 0.008 | rucaparib -0.037 | [2] -0.048 | encorafenib -0.013 | [3] -0.016 | [4] -0.257 | filanesib -0.01 | zotarolimus -0.056 | idasanutlin 0.186 | alisertib 0.059 | [5] 0.031 | gefitinib -0.071 | [6] 0.084 | lapatinib -0.004 | pictilisib 0.202

AGL (UniProt P35573)
inactive: saracatinib -0.16 | sotrastaurin -0.129 | alvocidib 0.064 | Tubastatin A 0.059 | [1] 0.072 | defactinib 0.061 | rucaparib 0.148 | [2] 0.086 | encorafenib 0.085 | [3] -0.024 | [4] 0.036 | filanesib 0.155 | zotarolimus 0.047 | idasanutlin 0.177 | alisertib -0.024 | [5] -0.181 | gefitinib 0.027 | [6] -0.13 | lapatinib 0.082 | pictilisib 0.186

AIMP2 (UniProt Q13155)
inactive: saracatinib -0.121 | sotrastaurin -0.037 | alvocidib 0.251 | Tubastatin A 0.025 | [1] -0.104 | defactinib 0.31 | rucaparib 0.418 | [2] 0.183 | encorafenib 0.102 | [3] -0.046 | [4] -0.028 | filanesib 0.194 | zotarolimus 0.09 | idasanutlin 0.272 | alisertib -0.061 | [5] 0 | gefitinib -0.084 | [6] -0.236 | lapatinib 0.003 | pictilisib -0.147

AFTPH isoform 9 (UniProt Q6ULP2)
inactive: saracatinib -0.007 | sotrastaurin 0.036 | alvocidib -0.03 | Tubastatin A 0.048 | [1] -0.017 | defactinib -0.087 | rucaparib 0 | [2] -0.048 | encorafenib -0.02 | [3] 0.033 | [4] -0.03 | filanesib 0.085 | zotarolimus 0.01 | idasanutlin 0.053 | alisertib -0.006 | [5] -0.001 | gefitinib 0.004 | [6] -0.053 | lapatinib -0.04 | pictilisib -0.17

ALDOC (UniProt P09972)
inactive: saracatinib 0.031 | sotrastaurin 0.002 | alvocidib -0.053 | Tubastatin A -0.007 | [1] -0.051 | defactinib 0.003 | rucaparib -0.017 | [2] -0.017 | encorafenib -0.012 | [3] 0 | [4] 0.029 | filanesib -0.019 | zotarolimus -0.001 | idasanutlin 0.003 | alisertib 0.002 | [5] -0.001 | gefitinib 0 | [6] 0.135 | lapatinib 0.001 | pictilisib 0.064

ALG1 (UniProt Q9BT22)
inactive: saracatinib -0.006 | sotrastaurin -0.098 | alvocidib 0.015 | Tubastatin A -0.007 | [1] 0.081 | defactinib 0 | rucaparib -0.099 | [2] 0.008 | encorafenib 0.035 | [3] -0.06 | [4] -0.004 | filanesib -0.227 | zotarolimus 0.016 | idasanutlin -0.046 | alisertib -0.178 | [5] 0.14 | gefitinib 0 | [6] -0.043 | lapatinib 0.033 | pictilisib 0.078

AFP (UniProt P02771)
inactive: saracatinib 0.548 | sotrastaurin 0.318 | alvocidib 0.033 | Tubastatin A -0.203 | [1] 0.22 | defactinib -0.039 | rucaparib -0.378 | [2] -0.033 | encorafenib -0.009 | [3] 0.207 | [4] -0.068 | filanesib 0.198 | zotarolimus -0.107 | idasanutlin 0.019 | alisertib -0.129 | [5] -0.044 | gefitinib -0.112 | [6] 0.374 | lapatinib 0.021 | pictilisib -0.012

AMPD2 (UniProt Q01433)
inactive: saracatinib 0.039 | sotrastaurin 0.038 | alvocidib -0.048 | Tubastatin A -0.047 | [1] -0.05 | defactinib -0.016 | rucaparib -0.032 | [2] -0.033 | encorafenib 0.001 | [3] 0.003 | [4] -0.017 | filanesib -0.089 | zotarolimus -0.008 | idasanutlin -0.055 | alisertib -0.029 | [5] -0.026 | gefitinib 0 | [6] 0.043 | lapatinib 0.007 | pictilisib 0.013

ALKBH6 isoform 2 (UniProt Q3KRA9)
inactive: saracatinib 0.069 | sotrastaurin 0.061 | alvocidib 0.069 | Tubastatin A -0.017 | [1] -0.042 | defactinib -0.024 | rucaparib -0.026 | [2] -0.049 | encorafenib -0.024 | [3] -0.006 | [4] -0.106 | filanesib 0.016 | zotarolimus 0.058 | idasanutlin -0.041 | alisertib -0.014 | [5] 0.034 | gefitinib 0.076 | [6] 0.018 | lapatinib 0.005 | pictilisib 0.099

AKT1S1 isoform 3 (UniProt Q96B36)
inactive: saracatinib 0.022 | sotrastaurin 0.048 | alvocidib 0.001 | Tubastatin A -0.032 | [1] -0.014 | defactinib 0.006 | rucaparib -0.033 | [2] 0.077 | encorafenib -0.042 | [3] 0.025 | [4] -0.085 | filanesib 0.045 | zotarolimus -0.003 | idasanutlin -0.044 | alisertib -0.028 | [5] 0 | gefitinib 0.019 | [6] 0.069 | lapatinib 0.011 | pictilisib 0.054

Retrieved one by one from the entries so far, 2 records:
AFP (UniProt P02771)
inactive: saracatinib 0.548 | sotrastaurin 0.318 | alvocidib 0.033 | Tubastatin A -0.203 | [1] 0.22 | defactinib -0.039 | rucaparib -0.378 | [2] -0.033 | encorafenib -0.009 | [3] 0.207 | [4] -0.068 | filanesib 0.198 | zotarolimus -0.107 | idasanutlin 0.019 | alisertib -0.129 | [5] -0.044 | gefitinib -0.112 | [6] 0.374 | lapatinib 0.021 | pictilisib -0.012

AIMP2 (UniProt Q13155)
inactive: saracatinib -0.121 | sotrastaurin -0.037 | alvocidib 0.251 | Tubastatin A 0.025 | [1] -0.104 | defactinib 0.31 | rucaparib 0.418 | [2] 0.183 | encorafenib 0.102 | [3] -0.046 | [4] -0.028 | filanesib 0.194 | zotarolimus 0.09 | idasanutlin 0.272 | alisertib -0.061 | [5] 0 | gefitinib -0.084 | [6] -0.236 | lapatinib 0.003 | pictilisib -0.147

(next part)

ADSS2 (UniProt P30520)
inactive: saracatinib -0.023 | sotrastaurin 0.025 | alvocidib -0.006 | Tubastatin A 0.004 | [1] -0.022 | defactinib -0.033 | rucaparib -0.096 | [2] 0.021 | encorafenib -0.018 | [3] 0.011 | [4] -0.002 | filanesib -0.036 | zotarolimus -0.009 | idasanutlin -0.054 | alisertib -0.048 | [5] 0.059 | gefitinib 0.024 | [6] 0.019 | lapatinib 0.003 | pictilisib 0.037

ANAPC10 (UniProt Q9UM13)
inactive: saracatinib -0.08 | sotrastaurin -0.072 | alvocidib 0.024 | Tubastatin A 0.076 | [1] 0.026 | defactinib -0.047 | rucaparib -0.168 | [2] 0.042 | encorafenib 0.161 | [3] -0.041 | [4] 0.095 | filanesib -0.007 | zotarolimus -0.056 | idasanutlin 0.026 | alisertib -0.065 | [5] -0.03 | gefitinib 0.025 | [6] -0.039 | lapatinib -0.021 | pictilisib -0.037

AHNAK (UniProt Q09666)
inactive: saracatinib 0.006 | sotrastaurin 0.021 | alvocidib 0.007 | Tubastatin A -0.008 | [1] -0.024 | defactinib -0.018 | rucaparib 0.021 | [2] -0.098 | encorafenib -0.014 | [3] 0.015 | [4] -0.054 | filanesib 0.172 | zotarolimus -0.015 | idasanutlin 0.016 | alisertib -0.006 | [5] 0.196 | gefitinib 0.017 | [6] 0.007 | lapatinib 0.015 | pictilisib 0.063

AKR1B1 (UniProt P15121)
inactive: saracatinib 0.065 | sotrastaurin 0.017 | alvocidib 0.049 | Tubastatin A 0.019 | [1] -0.022 | defactinib 0.003 | rucaparib 0.014 | [2] -0.029 | encorafenib -0.016 | [3] 0.097 | [4] -0.051 | filanesib 0.003 | zotarolimus -0.027 | idasanutlin 0.021 | alisertib -0.049 | [5] -0.106 | gefitinib 0.027 | [6] 0.021 | lapatinib 0.036 | pictilisib 0.066

AKAP1 (UniProt Q92667)
inactive: saracatinib -0.132 | sotrastaurin -0.112 | alvocidib 0.027 | Tubastatin A 0.027 | [1] -0.024 | defactinib -0.019 | rucaparib 0.195 | [2] 0.057 | encorafenib 0.02 | [3] -0.024 | [4] -0.015 | filanesib 0.128 | zotarolimus 0.082 | idasanutlin 0.054 | alisertib -0.064 | [5] -0.206 | gefitinib 0.024 | [6] -0.111 | lapatinib 0.072 | pictilisib 0.013

ALG9 isoform 3 (UniProt Q9H6U8)
inactive: saracatinib -0.007 | sotrastaurin 0.021 | alvocidib -0.028 | Tubastatin A 0.041 | [1] 0.036 | defactinib 0.023 | rucaparib 0.032 | [2] 0.014 | encorafenib -0.127 | [3] -0.005 | [4] -0.084 | filanesib -0.052 | zotarolimus 0.034 | idasanutlin 0.073 | alisertib 0.022 | [5] -0.016 | gefitinib -0.02 | [6] 0.016 | lapatinib -0.052 | pictilisib -0.011
